Reference: PubChem BioAssay AID504793 (Drosophila RNAi Screening Center, 2011)
Test: 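Knock-downs allowing continued mitosis even though DNA is damaged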 (primary screen). Cell system: Drosophila S2R+ cells. Reagents: long dsRNA against Drosophila genes, about 0.25 µg dsRNA per well. Duration: 4 days of dsRNA, then 4 hours of drug before read-out. Conditions: doxorubicin 0.5 µM for 4 hours to cause double-strand breaks, in cells also given a low, harmless dose of dsRNA against nbs to sensitise the assay. Measured: 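Per-well count of mitotic cells stained for phospho-histone H3 after doxorubicin exposure, used as mitotic index; counts are raw and not normalised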. Reading the numbers: mitotic cells: higher = more cells in mitosis, weaker G2 arrest. Rule for the call: 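a call needs confirmation in secondary tests, with other dsRNAs and a check of mitotic timing without damage, not just a high primary count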. Meaning of the calls: active = confirmed in follow-up tests; inactive = not confirmed.
In all, the deposit lists about 23,000 reagents; shown is a random part of those that have a named target and a result. In the full data, 62 (0.27%) were called active. 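Calls come from follow-up tests whose scores are not deposited, so confirmed genes may have low counts here; counts are not normalised per plate.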 Raw values vary from plate to plate and are shown uncorrected. The numbers tell different reagents against one gene apart. Names joined by + are all predicted targets of the reagent.

gene knocked down	reagent	mitotic cells, replicate 1	Call
Jon99Ciii + Jon99Fi + Jon99Fii + 1 more	1	3	inactive
PyK (Pyruvate kinase)	1	10	inactive
PyK (Pyruvate kinase)	2	7	inactive
mRpL22 (mitochondrial ribosomal protein L22)	1	5	inactive
mRpL22 (mitochondrial ribosomal protein L22)	2	4	inactive
Ir48b (Ionotropic receptor 48b)	1	2	inactive
CG31007	1	42	inactive
CG31007	2	3	inactive
CG15525	1	7	inactive
CG15525	2	3	inactive
CG12316	1	5	inactive
CG12316	2	10	inactive
endos (endosulfine)	1	25	inactive
endos (endosulfine)	2	35	inactive
CG3213	1	5	inactive
CG3213	2	5	inactive
CapaR (Capability receptor)	1	7	inactive
alpha-Man-Ia (alpha-Mannosidase class I a)	1	4	inactive
alpha-Man-Ia (alpha-Mannosidase class I a)	2	7	inactive
alpha-Man-Ia (alpha-Mannosidase class I a)	3	11	inactive
alpha-Man-Ia (alpha-Mannosidase class I a)	4	12	inactive
alpha-Man-Ia (alpha-Mannosidase class I a)	5	16	inactive
CG31370	1	12	inactive
VhaAC45 (Vacuolar H[+] ATPase AC45 accessory subunit)	1	5	inactive
KLHL18 (Kelch like family member 18)	1	8	inactive
KLHL18 (Kelch like family member 18)	2	7	inactive
RasGAP1 (Ras GTPase activating protein 1)	1	6	inactive
gcl (germ cell-less)	1	2	inactive
gcl (germ cell-less)	2	8	inactive
CG32834	1	11	inactive
CG32834	2	11	inactive
Desat1 (Desaturase 1)	1	3	inactive
Desat1 (Desaturase 1)	2	6	inactive
MESK2 (Misexpression suppressor of KSR 2)	1	3	inactive
MESK2 (Misexpression suppressor of KSR 2)	2	5	inactive
side-V (sidestep V)	1	15	inactive
sut4 (sugar transporter 4)	1	5	inactive
sut4 (sugar transporter 4)	2	8	inactive
CG16978	1	10	inactive
CG4393	1	6	inactive
CG7888	1	4	inactive
Cpr12A (Cuticular protein 12A)	1	11	inactive
brun (brunelleschi)	1	3	inactive
Dcps (Decapping enzyme, scavenger)	1	9	inactive
wntD (wnt inhibitor of Dorsal)	1	8	inactive
wntD (wnt inhibitor of Dorsal)	2	7	inactive
CG12521	1	8	inactive
CHKov2 (CHK domain ov2)	1	5	inactive
CHKov2 (CHK domain ov2)	2		inactive
LManIV (Lysosomal alpha-mannosidase IV)	1	5	inactive
LManIV (Lysosomal alpha-mannosidase IV)	2	5	inactive
Vsx1 (Visual system homeobox 1)	1	6	inactive
Vsx1 (Visual system homeobox 1)	2	7	inactive
CG5787	1	2	inactive
CG5787	2	4	inactive
CG42335	1	7	inactive
CG42335	2	8	inactive
CG42335	3	7	inactive
CG5639	1	13	inactive
mu2 (mutator 2)	1	3	inactive
mu2 (mutator 2)	2	4	inactive
CG33301	1	7	inactive
CG33301	2	6	inactive
enc (encore)	1	6	inactive
enc (encore)	2	7	inactive
CG18649	1	4	inactive
Duba (Deubiquitinating enzyme A)	1	6	inactive
CG13884	1	5	inactive
CG13060	1	7	inactive
CG13060	2	4	inactive
NKCC (sodium potassium chloride cotransporter)	1	5	inactive
NKCC (sodium potassium chloride cotransporter)	2	4	inactive
Ugt35C1 (UDP-glycosyltransferase family 35 member C1)	1	2	inactive
Ugt35C1 (UDP-glycosyltransferase family 35 member C1)	2	2	inactive
Brr2 (Brr2 U5 snRNP complex subunit)	1	4	inactive
